# Test results reported in publication PMC7067766.
# B1: bovine complement factor H from serum (protein, UniProt Q28085 19-1236)
# chain: EDCKEPPPRKETEILSGSWTEQTYQEGTQATYKCRPGYRTLGSIVMMCRGGKWVSLHPSRICRKKPCAHPGDTPFGSFHLAEGTQFEYGAKVVYTCDEGYQMVGEMNFRECDTNGWTNDIPICEVVKCLPVTEPENGKIFSDALEPDQEYTYGQVVQFECNSGYMLDGPKQIHCSAGGVWSAETPKCVEIFCKTPVILNGQAVLPKATYKANERVQYRCAAGFEYGQRGDTICTKSGWTPAPTCIEITCDPPRIPNGVYRPELSKYRGQDKITYECKKGFFPEIRGTDATCTRDGWVPVPRCAWKPCSYPVIKHGRLYYSYRGYFPARVNQQFVYSCDHHFVPPSQRSWDHLTCTAEGWSPEEPCLRQCIFNYLENGHTPYREEKYLQGETVRVRCYEGYSLQNDQNTMTCTESGWSPPPRCIRVKTCSKSNIRIENGFLSESTFTYPLNKQTEYKCKPGYVTADGKTSGLITCLKNGWSAQPVCIKSCDRPVFEKARVKSDGTWFRLNDRLDYECVDGYENRDGRTTGSIVCGQDGWSDKAACYERECSIPEMDPYLNAYPRKETYKVGDVLKFSCSQGRIMVGADSVQCYHFGWSPKLPTCKVKKVKSCALPPELPNGKRKEIHKEEYAHNEVVEYACNPRFLMKGSHKIQCVDGEWTALPVCIEEERTCGNIPDLDHGDVKPSVPPYHHGDSVEFSCREAFTMIGPRFITCISGEWTQPPQCIATDELRKCKGSTLFPPEGRQAHKIEYDHNTNKSYQCRGKSEHKHSICINGEWDPKVDCNEEAKIQLCPPPPQVPNACDMTTTVNYQDGEKISILCKENYLIQDAEEIVCKDGRWQSIPRCIEKIGCSQPPQIDHGTISSSSSAEERREIHEQRLYAHGTKLSYTCEEGFEISENNVIICHMGKWSSPPQCVGLPCGLPPYVQNGVVSHKKDRYQYGEEVTYDCDEGFGTDGPASIRCLGGEWSRPQDCISTNCVNLPTFEDAVLTDREKDFYRSGEQVAFKCLSYYQLDGSNTIQCIKSKWIGRPACRDVSCGNPPQVENAIIHNQKSKYQSEERARYECIGNYDLFGEMEVVCLNGTWTEPPQCKDSQGKCGPPPPIDNGDITSLLQSVYPPGMIVEYRCQAYYELRGNKNVVCRNGEWSQLPKCLEACVISEETMRKHHIQLRWKHDKKIYSKTEDTIEFMCQHGYRQLTPKHTFRATCREGKVVYPRCG
# B2: fluorescently labelled bovine FH purified from serum (protein, UniProt Q28085 19-1236)
# chain: B1 chain
# modifications: fluorescently labelled
# B3: bovine FH domain 5 (residues 264-323), tags removed, for crystallography (domain or fragment, UniProt Q28085 264-323)
# chain: EITCDPPRIPNGVYRPELSKYRGQDKITYECKKGFFPEIRGTDATCTRDGWVPVPRCAWK
# Key:
# [1] = target: GST-FHR mutant 1 (K46A, R47A) (T. brucei (Lister 427)); test: pull-down; GST fusion protein (1 mg) on glutathione-sepharose 4B, incubated with 1 ml serum for 60 min, 3 rapid PBS washes; eluate on SDS-PAGE, band identified by mass spectrometry; only the target purified
# [2] = target: GST-FHR mutant 2 (E31A, Q34A) (T. brucei (Lister 427)); test: as above
# [3] = target: GST-Tb927.5.4020 (GST-FHR, residues 25-251) (T. brucei (TREU 927)) (UniProt Q57Z47); test: as above
# [4] = target: GST-FHR wild type (residues 25-249) (T. brucei (Lister 427)); test: as above
# [5] = target: FHR on the surface of T. brucei procyclic forms (FHR+/+ PCFs) (T. brucei (endogenous in strain J10 PCFs)); test: live-cell binding assay (fluorescence microscopy); 100 nM fluorescently labelled bovine FH added to PCFs in culture for 2 h, cells then fixed and visualized; FHR-/- cells as control; only the binder purified
# [6] = target: FHR residues 25-251 for crystallography (T. brucei (TREU 927)) (UniProt Q57Z47); test: crystal structure; FHR and FH domain 5 mixed 1 : 1.05, complex purified by SEC; crystals at 18 °C, pH 5.5; 2.70 Å; both purified
binder,measurement,setting,value
B1,binding,[1],binds
same,binding,[2],no binding
same,binding,[3],binds
same,binding,[4],binds
B2,binding,[5],binds
B3,binding,[6],binds

# These are yes or no findings as the source states them, for the method shown. For part of these data: A result given as binding can be weak or reduced; the word gives no strength. For part of these data: Tags and fused reporters may be left off the sequences shown. For part of these data: In cells and extracts the contact can be indirect.
